Data from doi:10.1101/2025.01.09.632146.
No constants are given. Whether binding was seen depends on the method and setting. Binding can be weak; no strength is given. For some assays here: In cells and extracts the contact can be indirect.

Protein sequences, listed by entry. Tags and fused reporters are not part of them. Lines headed by an entry give the natural chain unless they say otherwise; changes in a name come on top.
UniProt O04834: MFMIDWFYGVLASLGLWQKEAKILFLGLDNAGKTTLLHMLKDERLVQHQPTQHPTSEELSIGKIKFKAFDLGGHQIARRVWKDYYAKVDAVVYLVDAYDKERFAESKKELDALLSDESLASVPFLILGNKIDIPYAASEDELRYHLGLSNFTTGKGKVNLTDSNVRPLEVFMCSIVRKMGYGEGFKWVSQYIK

T1: AtPHT1;1-CubPLV (Arabidopsis thaliana) (UniProt Q8VYM2)
T1 sequence: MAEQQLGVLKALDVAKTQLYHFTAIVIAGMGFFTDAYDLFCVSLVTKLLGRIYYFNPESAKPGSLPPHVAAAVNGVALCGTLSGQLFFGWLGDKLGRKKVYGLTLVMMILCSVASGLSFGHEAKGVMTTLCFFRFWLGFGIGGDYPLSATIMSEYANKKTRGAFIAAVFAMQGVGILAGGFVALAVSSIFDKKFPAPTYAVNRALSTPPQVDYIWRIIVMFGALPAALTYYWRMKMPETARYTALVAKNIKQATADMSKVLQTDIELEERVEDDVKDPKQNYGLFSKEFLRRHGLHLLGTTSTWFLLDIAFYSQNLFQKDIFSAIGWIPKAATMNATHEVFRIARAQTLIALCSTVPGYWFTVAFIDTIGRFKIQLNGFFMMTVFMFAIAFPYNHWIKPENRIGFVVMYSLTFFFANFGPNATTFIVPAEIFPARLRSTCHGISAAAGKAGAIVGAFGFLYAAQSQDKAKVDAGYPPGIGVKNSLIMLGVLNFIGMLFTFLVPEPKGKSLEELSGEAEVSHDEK


Assays:
[1] = molecular target: T1, AtPHT1;1-CubPLV (Arabidopsis thaliana); assay: two-hybrid
[2] = molecular target: AtSAR1c-S11 (Arabidopsis thaliana) (UniProt O04834); assay: split reporter

Row | Molecule | binding [1] | binding [2]
1 | AtSAR1c-NubG (from UniProt O04834) | binds | –
2 | S10-AtPHF1 N (domain or fragment, UniProt Q8GYE0 1-337) MEIEEASRESGHVVCGSWIRRPKKVNWVLIAKASKRRGSSVSSPALLNIFSFDPITASLSSSPLATHTLKDSDGDPVAVSVHPGGDYFVCSTSKGGCKLFELVGGATGITILAKELLPLQNAGLQKCMAFSFDGSKLAVGGVDGCLRIMEWPNLSVILDEPKAHKSIRDMDFSLDSEFLATTSTDGSARIWKAEDGFPLSTLERSGDENIELCRFSKDGTKPFLFCAAQRGDTPMVNVYDISTWKKLGFKKLSRKTASTMAVSLDGKYIALGGKDGDVSVAEVKTMEIYHYSKRLHLGQSIASLEFCPSERVMLTTSSEWGEMVTKLTVPKEWKEWQ | – | binds
